PubChem BioAssay AID493246 – Drosophila RNAi Screening Center, 2011
Aim: 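Identify essential fly genes by loss of cell viability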 (primary screen). Cells: Drosophila Kc and S2R+ cells. Reagent: long dsRNA against Drosophila genes. Measured: 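Cell number per well after knock-down, printed as raw plate values; calls were based on per-plate z-scores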. Direction: Kc cell number and S2R+ cell number: higher = more cells remaining. Hit rule: 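Counted as a hit if cell number falls by a z-score of at least 3 within its plate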.
In all, the deposit lists about 21,000 reagents; below is an unselected part of those with a known target gene and a result. Of all reagents, 429 (2%) got an active call. 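Values are raw and not normalised between plates; calls rest on per-plate z-scores that were not deposited.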 A plus sign joins genes that one reagent is predicted to hit. No sequences are given here. Not stated in the record: the amount of reagent, the time to read-out.

| predicted target | DRSC id | Kc cell number, rep 1 | Kc cell number, rep 2 | S2R+ cell number, rep 1 | S2R+ cell number, rep 2 | outcome |
| --- | --- | --- | --- | --- | --- | --- |
| CG14708 | DRSC14930 | 1.59e6 | 1.74e6 | 1.27e6 | 1.44e6 | inactive |
| Pka-R1 | DRSC11674 | 1.48e6 | 1.53e6 | 1.23e6 | 1.31e6 | inactive |
| Pka-R1 | DRSC11875 | 1.64e6 | 1.67e6 | 1.31e6 | 1.41e6 | inactive |
| Mfe2 | DRSC19869 | 6.43e5 | – | 9.24e5 | – | inactive |
| Cox10 | DRSC02804 | 1.26e6 | 1.27e6 | 1.05e6 | 1.18e6 | inactive |
| CG17490 | DRSC03794 | 5.90e5 | – | 8.04e5 | – | inactive |
| CG17490 | DRSC03797 | 1.49e6 | 1.57e6 | 1.21e6 | 3.55e5 | inactive |
| bru2 | DRSC01246 | 1.57e6 | 1.74e6 | 1.09e6 | 1.23e6 | inactive |
| bru2 | DRSC01247 | 1.18e6 | 1.34e6 | 7.61e5 | 9.01e5 | inactive |
| bru2 | DRSC01249 | 1.52e6 | 1.67e6 | 1.06e6 | 1.17e6 | inactive |
| bru2 | DRSC01250 | 1.59e6 | 1.66e6 | 1.09e6 | 1.25e6 | inactive |
| bru2 | DRSC02557 | 1.03e6 | 1.08e6 | 8.00e5 | 8.79e5 | active |
| CG10839 | DRSC01965 | 1.56e6 | 1.60e6 | 1.29e6 | 1.52e6 | inactive |
| tup | DRSC03627 | 1.41e6 | 1.45e6 | 1.36e6 | 1.32e6 | inactive |
| PKD | DRSC16200 | 1.32e6 | 1.29e6 | 1.09e6 | 1.18e6 | inactive |
| Prosbeta4 | DRSC02603 | 9.53e5 | 1.05e6 | 7.31e5 | 8.19e5 | active |
| Alp5 | DRSC14269 | 1.57e6 | 1.67e6 | 1.22e6 | 1.26e6 | inactive |
| CG33969 + fbl | DRSC11886 | 1.34e6 | 1.46e6 | 1.26e6 | 1.33e6 | inactive |
| Hsp60B | DRSC00542 | 1.37e6 | 1.40e6 | 9.32e5 | 1.03e6 | inactive |
| CG1143 | DRSC08188 | 1.61e6 | 1.43e6 | 8.25e5 | 1.07e6 | inactive |
| Vps8 | DRSC09705 | 1.26e6 | 1.22e6 | 1.12e6 | 1.19e6 | inactive |

Reformatted: 3 of the entries above.
predicted target	DRSC id	Kc cell number, rep 1	Kc cell number, rep 2	S2R+ cell number, rep 1	S2R+ cell number, rep 2	outcome
PKD	DRSC16200	1.32e6	1.29e6	1.09e6	1.18e6	inactive
Prosbeta4	DRSC02603	9.53e5	1.05e6	7.31e5	8.19e5	active
Alp5	DRSC14269	1.57e6	1.67e6	1.22e6	1.26e6	inactive

Continued:
| predicted target | DRSC id | Kc cell number, rep 1 | Kc cell number, rep 2 | S2R+ cell number, rep 1 | S2R+ cell number, rep 2 | outcome |
| --- | --- | --- | --- | --- | --- | --- |
| CG42299 + CG42300 | DRSC19680 | 1.51e6 | 1.54e6 | 1.03e6 | 1.14e6 | inactive |
| CG42299 + CG42300 | DRSC19815 | 1.51e6 | 1.51e6 | 1.03e6 | 1.14e6 | inactive |
| Ak3 | DRSC16075 | 1.60e6 | 1.71e6 | 1.30e6 | 1.36e6 | inactive |
| CG14294 | DRSC14774 | 1.49e6 | 1.53e6 | 1.06e6 | 1.22e6 | inactive |
| Cda9 | DRSC06593 | 1.47e6 | 1.55e6 | 1.19e6 | 1.28e6 | inactive |
| Dif | DRSC03316 | 1.49e6 | 1.57e6 | 1.20e6 | 1.33e6 | inactive |
| Grasp65 | DRSC10917 | 1.38e6 | 1.42e6 | 1.31e6 | 1.36e6 | inactive |
| CG11842 | DRSC14400 | 5.51e5 | – | 8.28e5 | – | inactive |
| r-cup | DRSC20475 | 1.43e6 | 1.49e6 | 1.10e6 | 1.17e6 | inactive |
| ana2 | DRSC05952 | 1.35e6 | 1.42e6 | 1.21e6 | 1.27e6 | inactive |
| CG7829 | DRSC16322 | 1.43e6 | 1.44e6 | 1.01e6 | 1.12e6 | inactive |
| NC2beta | DRSC01895 | 1.45e6 | 1.47e6 | 1.18e6 | 1.24e6 | inactive |
| Adck1 | DRSC04394 | 1.38e6 | 1.42e6 | 1.20e6 | 1.30e6 | inactive |
| Or85d | DRSC16767 | 1.42e6 | 1.58e6 | 1.25e6 | 1.36e6 | inactive |
| RpLP1 | DRSC00783 | 1.64e6 | 1.59e6 | 7.26e5 | 8.12e5 | active |
| CG12708 | DRSC19490 | 1.50e6 | 1.50e6 | 1.09e6 | 1.16e6 | inactive |
| CG10589 | DRSC11629 | 1.66e6 | 1.66e6 | 1.43e6 | 1.51e6 | inactive |
| CG13135 | DRSC02232 | 1.51e6 | 1.50e6 | 1.12e6 | 1.21e6 | inactive |
| dpr2 | DRSC02370 | 1.47e6 | 1.59e6 | 1.26e6 | 1.38e6 | inactive |
| dpr2 | DRSC02371 | 1.53e6 | 1.59e6 | 1.23e6 | 1.35e6 | inactive |
